In article PMC12040169 (PLOS Biology, 2025):
The list shows a part of the results.

test system: T1, CTL2-GFP (C. trachomatis L2/434/Bu, GFP-expressing); parameters: species or system HeLa; Intracellular C. trachomatis growth in HeLa cells, bulk GFP fluorescence relative to DMSO; conditions: bulk GFP, single well; 28.5 h, 10 µM; inhibitor
T1 construct: L2/434/Bu, GFP-expressing

| Structure (SMILES) | % of control remaining |
| --- | --- |
| COc1ccnc(N2CCN(C(=O)c3cncnc3C)CC2)n1 [CBK304894] | 128.067% |
| COc1ccc2c(c1)C(O)C(NCc1ccccc1)C2 (stereo not drawn) [CBK015469C] | 95.1497% |
| CN(C)c1ccc(CC(=O)Nc2cnc(-c3cccc(C(F)(F)F)c3)c(-c3cccnc3)n2)cc1 [CBK036901] | 147.308% |
| COc1ccccc1NC(=O)NC(=O)C1CCN(CCc2cccs2)CC1 [CBK034912] | 159.921% |
| Cc1cc(CN(C)Cc2ccc3c(c2)n(C)c(=O)n3C)n[nH]1 [CBK281705] | 82.3872% |
| N#Cc1c(NC(=O)COc2ccc(Cl)cc2)oc(-c2ccccc2)c1-c1ccccc1 [CBK262938] | 109.06% |
| Cc1c(C(=O)N2CCC(c3cc4ncccc4[nH]3)CC2)cnn1C [CBK283384] | 129.612% |
| CC(C)c1ccc(/C=N/Nc2nc(-c3ccccc3)cs2)cc1 [CBK263091] | 94.3602% |
| CCC1CCCCN1C(=O)c1ccccc1C(=O)OC (stereo not drawn) [CBK083196] | 99.7186% |
| COc1ccc(CNc2cccc(C(=O)O)c2C)cc1OC [CBK269634] | 87.7714% |
| CCC(=O)N1CCCCC(NS(=O)(=O)c2ccc(-n3cccn3)cc2)C1 (stereo not drawn) [CBK307398] | 107.313% |
| CC(NC(=O)COc1ccc(Cl)cc1)C(=O)O (stereo not drawn) [CBK262112] | 100% |
| O=C1N=C(NC2C3CC4CC(C3)CC2C4)OC12CCN(CCC(F)(F)F)CC2 (stereo not drawn) [CBK115640] | 108.767% |
| CC(C)C(CCC(=O)Nc1ccc([N+](=O)[O-])cc1O)C(=O)O (stereo not drawn) [CBK268464] | 131.223% |
| CC(C)OC(=O)Cn1c(C2CCNCC2)cc2cccnc21 [CBK285075] | 118.725% |
| CCCNC(=O)CN1C(=O)N2CCCN=C2c2ccccc21 [CBK284405] | 111.217% |
| NC(=O)c1ccc(-c2nccnc2NCCc2ccncc2)cc1 [CBK036644] | 80.4475% |
| O=Cc1c(-[n+]2ccc(-c3ccncc3)cc2)nc([O-])n1-c1ccccc1 [CBK261529] | 108.009% |
| c1ccc2oc([C@H]3CCN(C4CCOCC4)C3)nc2c1 [CBK289388] | 123.949% |
| O=C(NCCc1ccco1)c1ncoc1-c1ccc(F)cc1 [CBK282247] | 141.087% |
| CN1CCCCC/C1=N/C(=S)CN1CCCC1=S [CBK009052] | 93.9445% |

| Structure (SMILES) | % of control remaining |
| --- | --- |
| COc1cc(NC(=O)CCc2ccccc2)nc(OC)n1 [CBK072282] | 123.72% |
| CC1(C)COC(=O)N1C1CCN(C(=O)CCS/C=C\c2ccccc2)CC1 [CBK045134] | 133.569% |
| CCc1nc2ccc(C(=O)NC3=NC(=O)CS3)cn2c1N(CC)C(C)=O [CBK145839] | 169.265% |
| c1ccc2sc(-n3cncn3)nc2c1 [CBK027022] | 141.124% |
| CCN(Cc1ccccc1)C(=O)NCc1cnc(C)cn1 [CBK155218] | 104.287% |
| CC(Cn1cc(Cl)cn1)C(=O)NCCN(C)C1CCCCC1 (stereo not drawn) [CBK282041] | 100.198% |
| Cc1nnc(SCC(=O)N/N=C/c2ccc(-c3ccc(Br)cc3)o2)n1-c1ccccc1 [CBK262769] | 116.533% |
| CCc1nc2c(OCC(=O)N3CCOCC3)cccn2c1N(C)C(=O)c1ccco1 [CBK147436] | 133.461% |
| FC(F)(F)c1ccc(N2CCNCC2)nc1OCc1ccc2c(c1)OCCO2 [CBK003994A] | 74.5912% |
| Cc1nn(C)cc1CN(Cc1cccc(F)c1)CC1CCCO1 (stereo not drawn) [CBK283013] | 104.126% |
| COc1csc(C(=O)Nc2ncn(CC(=O)N3CCCCCC3)n2)c1 [CBK304463] | 122.114% |
| CCC(=O)NCc1csc(-c2ccccc2)n1 [CBK092344] | 111.105% |
| CC[C@H](Cn1c(=O)oc2ccccc21)NC(=O)c1ccco1 [CBK284541] | 125.422% |
| O=S(=O)(Nc1ccc2cc(Br)cnc2n1)c1cccc2nsnc12 [CBK073894] | 112.904% |
| FC(F)(F)c1ccc(CN2CCN(c3nccnc3OCC3COc4ccccc4O3)CC2)cc1 (stereo not drawn) [CBK082789T] | 94.2059% |
| Cc1ccc(S(=O)(=O)N2Cc3ccccc3CC2C(=O)Nc2sc3c(c2C#N)CCCC3)cc1 (stereo not drawn) [CBK266313] | 116.479% |
| CN(C)c1cccc(-c2nc(-c3cccs3)cnc2N)c1 [CBK063979] | 129.688% |
| O=C(NC(=S)N1CCN(c2ccc([N+](=O)[O-])c(N3CCOCC3)c2)CC1)c1cc2ccccc2o1 [CBK268335] | 111.956% |
| COc1cc(OC)c2c(c1)OC1(CCN(C(=O)c3cnc(C)cn3)CC1)CC2=O [CBK156503] | 113.544% |
| O=C(Cc1ccccc1)N1CCN(C(=O)c2ccco2)CC1 [CBK068325] | 123.04% |
| O=C(O)Cc1sc(Nc2ccccc2)nc1-c1ccccc1 [CBK286775] | 98.9582% |

| Structure (SMILES) | % of control remaining |
| --- | --- |
| CCN(CC)C(=O)[C@@H]1CCCN1c1nc(O)cc(C(F)(F)F)n1 [CBK002867] | 103.936% |
| O=C(O)CC1S/C(=N/N=C/c2cn(Cc3ccccc3)c3ccccc23)NC1=O (stereo not drawn) [CBK264466] | 110.173% |
| Cc1nn(CCC#N)c(C)c1CCC(=O)NCc1ccccn1 [CBK305693] | 97.5465% |
| O=C(COc1ccccc1)N1CCC(Oc2nccnc2OCc2ccc(Cl)c(Cl)c2)CC1 [CBK160718] | 70.2513% |
| COCCCOc1nc2ccccc2nc1C(F)(F)F [CBK115803] | 98.7724% |
| O=C(c1cc(C(F)(F)F)cc(C(F)(F)F)c1)N1CCC(O)(c2ccc(Cl)cc2)CC1 [CBK061972] | 103.914% |
| O=C(O)C(Cc1cc2ccccc2[nH]1)N1C(=O)C2CC=C(Cl)CC2C1=O (stereo not drawn) [CBK266216] | 108.086% |
| Cc1nc2nc(N)nn2c(C)c1CCC(=O)NCc1ccccc1F [CBK305860] | 139.967% |
| O=C(NC1CC1)c1ccc(-c2cnc3[nH]c(=O)n(CC4CCOCC4)c3n2)cc1 [CBK064890] | 154.757% |
| C=CCNC(=O)c1cc(Br)cnc1NCC1CC1 [CBK076424] | 179.379% |
| COc1ccccc1N1CCN(C(=O)c2snnc2C)CC1 [CBK057792] | 118.122% |
| Nc1ccc(NC(=O)c2ccc(NC(=O)c3cnc(-c4ccccc4)c(-c4ccncc4)c3)cc2)cc1 [CBK037463] | 152.604% |
| O=C(c1cc(S(=O)(=O)N2CCCCC2)c(Cl)cc1N1CCOCC1)N1CCOCC1 [CBK263400] | 73.4557% |
| O=C(O)CSc1nc2cc(Cl)c(Cl)cc2nc1N1CCCC1 [CBK107863] | 117.431% |
| COc1ccc(NC(=O)c2c(C)[nH]c(=O)[nH]c2=S)cc1OC [CBK115517] | 131.729% |
| CN1CCC(Cc2nc(CC3CCCOC3)n(CC(F)(F)F)n2)CC1 (stereo not drawn) [CBK306801] | 126.305% |
| O=C1N/C(=N\c2ccccn2)SC1Cc1ccc(Br)cc1 (stereo not drawn) [CBK263109] | 100% |
| CCn1nc(C)c(C(C)NC(=O)c2c3c(nn2CC)CCCC3)c1C (stereo not drawn) [CBK282077] | 121.722% |
| CN(C)S(=O)(=O)N1CCN(c2ccnc3cc(Cl)ccc23)CC1 [CBK269785] | 115.651% |
| O=C(O)c1ccc(CNC(=S)NCC2CCCO2)cc1 (stereo not drawn) [CBK266908] | 132.411% |
| COC(=O)C1(Cc2cc(-c3ccccc3F)no2)CCOCC1 [CBK285182] | 125.666% |

| Structure (SMILES) | % of control remaining |
| --- | --- |
| CCNC(=O)Nc1ccc2c(-c3cccc(C(F)(F)F)c3)ccnc2n1 [CBK070678] | 100% |
| COC(=O)COc1ccc2cccc(-n3cnnn3)c2c1 [CBK270173] | 150.362% |
| COc1ccc(CCNc2ccccc2[N+](=O)[O-])cc1OC [CBK074819] | 93.735% |
| Cc1ccc(S(=O)(=O)NCCNc2ccc(Cl)cc2[N+](=O)[O-])cc1 [CBK263784] | 106.067% |
| CS(=O)(=O)Nc1nccnc1OC1CCNCC1 [CBK074265T] | 157.727% |
| CC(C)Nc1nc(NC(C)C)nc(N(C)C(N)=O)n1 [CBK027732] | 137.976% |
| CC(C)(C)c1nnc(NCc2ccccc2)s1 [CBK074922] | 81.3194% |
| COc1ccc(C(=O)N2C[C@@H]3C[C@H](C2)c2ccc(-c4cccnc4)c(=O)n2C3)cc1 [CBK289182] | 118.552% |
| Cc1ccc(C(C)C)cc1OCC(=O)N/N=C\c1cc([N+](=O)[O-])ccc1O [CBK261206] | 82.6998% |
| Cc1cc(C(=O)N2CCCC2c2ccc[nH]2)c2c(C)noc2n1 (stereo not drawn) [CBK305245] | 90.2499% |
| CCOC(=O)CN1CCCN(c2nccc(OCC3COc4ccccc4O3)n2)CC1 (stereo not drawn) [CBK083975] | 96.6097% |
| CC(=O)c1sc2nc(C)cc(C)c2c1N [CBK131882] | 175.758% |
| COC(=O)c1ccsc1NS(=O)(=O)Cc1ccccc1 [CBK039067] | 156.462% |
| CC(C)NC(=O)c1cc(C2CN(C(=O)CCc3ccccc3F)CCO2)nc2ccccc12 (stereo not drawn) [CBK285893] | 98.0806% |
| O=C(NCc1c(Cl)cccc1Cl)N1CCCC(CO)C1 (stereo not drawn) [CBK156054] | 89.2787% |
| CCC1CNCCN1c1nccnc1OCCOc1cccnc1 (stereo not drawn) [CBK001559F] | 127.993% |
| O=C(Nc1ccc(F)c(F)c1)c1cnc2sccn2c1=O [CBK287450] | 113.01% |
| COC(=O)c1ccsc1NS(=O)(=O)c1ccc(Oc2ccccc2)cc1 [CBK039064] | 90.7527% |
